These results are taken from patent publication US20170168041A1 (National University of Singapore, priority 2014, published 2017).

A short description of this data set: peptide synthesis. Conditions: conjugation step.

For the substance “Alkyne-(Asp-Asp-Asp-Asp-Asp-Val-His-Leu-Gly-Tyr-Ala-Thr) (SEQ ID NO: 7)”, the conjugation yield result is on record as “˜25%”.

With “Alkyne-(Gly-Val-His-Leu-Gly-Tyr-Ala-Thr) (SEQ ID NO: 6)”, the conjugation yield result is listed as “˜30%”.

Under “head-to-tail ring, sequence written open”, TPETP-SS-DEVD-TPS-cRGD yielded a conjugation yield of 32%. Further, the “final HPLC purity” value (λ=320 nm, head-to-tail ring, sequence written open) came out at 97.3%.
